In PubChem BioAssay AID2685 (National Center for Advancing Translational Sciences (NCATS), 2010):
Where “and” joins values, the source holds several entries; their conditions need not be identical. Equal values may be shown once. The list shows a part of the results. Further columns of the screen follow, without active or inactive calls. Most of these compounds were active or inconclusive in the main read-out, so they are no random draw. Potencies come from curve fits of mixed quality, noted in brackets.

Test: qHTS Assay for Lipid Storage Modulators in Drosophila S3 Cells;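 for cell number change: cells counted by Cell Tracker Red CMTPX staining in the red channel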
Conditions: BODIPY lipid droplet fluorescence, 18-24 h; for cell number change: measured here: cell count max response, cells fed with added oleic acid
Procedure, shortened: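 Drosophila S3 cells got compounds at several concentrations plus oleic acid (400 uM solution). Laser-scanning cytometry with 488 nm excitation read lipid droplets at 500-530 nm and cells at 575-640 nm. Percent activity was relative to 20 uM Triacsin C.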

[1] = measured here: lipid fluorescence (Fed channel) AC50, cells fed with added oleic acid
[2] = measured here: cell number channel AC50, cells fed with added oleic acid

| SMILES | cell number change | AC50 [1] | AC50 [2] |
| --- | --- | --- | --- |
| COc1ccc(N2CCN(C(=O)c3oc4ccccc4c3NC(=O)CCc3cc(OC)no3)CC2)cc1 | -3.67% |  |  |
| COc1ccccc1NC(=O)c1ccc(-n2cncn2)nc1 | 23.5% | 4.61 µM [rising, single point] |  |
| COc1ccc(OCC2CNC(=O)O2)cc1 (stereo unspecified) |  | 6.51 µM [falling, single point] |  |
| Cc1ccc(NCc2n[nH]c(=S)n2-c2ccccc2)c(C)c1 | 13.8% |  | 0.00651 µM [rising, full curve, poor fit] |
| COc1cccc(NC(=O)C(c2ccccc2)N2CCN(CC(=O)N3CCOCC3)CC2)c1 (stereo unspecified) | 7.89% | 0.13 µM [falling, full curve, poor fit] |  |
| COc1ccc(/C=N/Nc2ncnc3c2[nH]c2ccc(C)cc23)c(OC)c1OC | -19.3% | 6.51 µM [falling, single point] |  |
| COc1ccccc1OCC(=O)NCc1n[nH]c(=O)c2ccccc12 | -2.64% | 0.92 µM [falling, full curve, poor fit] |  |
| CCOC(=O)C(=CNc1nc(-c2ccccc2)c(C(=O)Nc2ccc(-c3ccccc3)cc2)s1)C(=O)OCC | -18.3% | 0.731 µM [rising, full curve] |  |
| CC(C)CC(=O)Nc1ccc(C(=O)COC(=O)CN2C(=O)NC3(CCCCC3C)C2=O)cc1 (stereo unspecified) | -27.3% |  | 0.00146 µM [falling, full curve, poor fit] |
| C=CCOCC(O)CS(=O)(=O)Cc1ccc(Cl)cc1 (stereo unspecified) | 9.64% | 0.116 µM [falling, full curve, poor fit] | 0.146 µM [falling, full curve, poor fit] |
| CCOC(=O)c1c(C)oc2ccc(OCC(=O)C(C)(C)C)cc12 | -15.3% | 0.731 µM [rising, single point] |  |
| CCOc1ccc(S(=O)(=O)N2CCCC(C(=O)NCc3cccnc3)C2)cc1C (stereo unspecified) |  | 6.51 µM [rising, single point] |  |
| CC1(C)CC(=O)C=C(CN2C(=O)c3ccccc3C2=O)C1=O | 16.9% | 3.26 µM [rising, single point] |  |
| COc1cccc(N2C(=O)C(CC(=O)Nc3ccc(F)cc3)N(C3CCCCC3)C2=O)c1 (stereo unspecified) | 16.6% | 2.91 µM [rising, single point] |  |
| N#CCCn1cc(/C=C(\C#N)c2nc3ccccc3s2)c(-c2ccc(F)cc2)n1 |  | 6.51 µM [rising, single point] | 6.51 µM [rising, single point] |
| O=C(NCc1ccc2c(c1)OCO2)c1cccc(N2CCCC2=O)c1 | -4.22% | 1.46 µM [rising, partial curve, poor fit] |  |
| COc1ccc(NC(=O)CSc2ncnc3c2sc2ccccc23)c(OC)c1 | 1.82% | 6.51 µM [falling, single point] | 6.51 µM [falling, single point] |
| Cc1ccc(NC(=O)c2noc3c2CC(C(C)(C)C)CC3)cc1 (stereo unspecified) | 9.35% | 0.116 µM [rising, full curve, poor fit] |  |
| CCC/C(=N/NC(=O)c1csc(C)c1C)c1ccc(Cl)s1 | 39.7% |  | 2.91 µM [rising, full curve, poor fit] |
| COc1ccc(/C=C2/C(=O)N(CC3CCCO3)C(=S)N2C)c(OC)c1 (stereo unspecified) | 30.7% | 2.31 µM [rising, partial curve] | 5.17 µM [rising, partial curve] |

4 structures already listed, arranged by molecular weight, smallest number first.

| SMILES | cell number change | AC50 [1] | AC50 [2] |
| --- | --- | --- | --- |
| COc1ccccc1NC(=O)c1ccc(-n2cncn2)nc1 | 23.5% | 4.61 µM [rising, single point] |  |
| COc1ccccc1OCC(=O)NCc1n[nH]c(=O)c2ccccc12 | -2.64% | 0.92 µM [falling, full curve, poor fit] |  |
| N#CCCn1cc(/C=C(\C#N)c2nc3ccccc3s2)c(-c2ccc(F)cc2)n1 |  | 6.51 µM [rising, single point] | 6.51 µM [rising, single point] |
| COc1ccc(N2CCN(C(=O)c3oc4ccccc4c3NC(=O)CCc3cc(OC)no3)CC2)cc1 | -3.67% |  |  |

Continued.

| SMILES | cell number change | AC50 [1] | AC50 [2] |
| --- | --- | --- | --- |
| Cc1ccc(S(=O)(=O)N2CCN(C(=O)c3n[nH]c4ccccc34)CC2)cc1 | -1.06% | 1.64 µM [falling, partial curve] |  |
| CCOC(=O)c1nn(-c2ccccc2F)c2nc(-c3ccco3)c(C#N)c(=O)n12 | 23.2% | 3.66 µM [rising, partial curve, poor fit] | 6.51 µM [rising, single point] |
| C=CCNS(=O)(=O)CC12CCC(CC1=O)C2(C)C (stereo unspecified) | -35.3% |  | 29.1 µM [falling, single point] |
| Nc1nnc(-c2cc3ccccc3oc2=O)s1 |  | 1.46 µM [rising, partial curve] | 2.31 µM [rising, partial curve] |
| CCC(=O)Nc1ccc(Nc2nc(Cl)nc(Nc3ccc(NC(=O)CC)cc3)n2)cc1 |  |  | 0.00411 µM [rising, full curve, poor fit] |
| Cc1cc(-c2nnc(CCC(=O)NCc3cc(F)cc(C(F)(F)F)c3)o2)no1 | 2.64% | 5.8 µM [rising, single point] |  |
| COc1cccc(CNC(=O)C2CCC(CNS(=O)(=O)c3cccc4cccnc34)CC2)c1 (stereo unspecified) |  | 0.58 µM [falling, single point] |  |
| NC(=O)c1ccnc2c(O)cccc12 | -28.7% and -21.5% | 820 nM [falling, single point] and 13 µM [falling, single point] | 0.103 µM [falling, full curve, poor fit] |
| Cc1cc2cc(CNC(=O)c3cccc([N+](=O)[O-])c3)ccc2[nH]1 | 17% | 14.6 µM [rising, partial curve, poor fit] |  |
| CCN(CC)S(=O)(=O)c1ccc(Cl)c(NC(=O)COC(=O)c2cccn2C)c1 | 56.8% | 0.82 µM [rising, full curve] |  |
| COc1ccc(N(CC(=O)O)S(=O)(=O)c2ccccc2[N+](=O)[O-])c(OC)c1 | -9.5% | 6.51 µM [falling, single point] |  |
| COc1ccc2cc(C(=O)C3CCCN(Cc4cccc(C)n4)C3)ccc2c1 (stereo unspecified) | -9.41% |  |  |
| O=C(c1ccc(Br)o1)N(Cc1ccccc1)c1ccccn1 | -9.25% | 6.51 µM [rising, single point] |  |
| CC(C)(C)n1nnnc1C(c1ccc(C#N)cc1)N1CCCC2(CCCCC2)C1 (stereo unspecified) | -56.1% | 3.26 µM [rising, single point] | 29.1 µM [falling, single point] |
| Cc1ccc2[nH]c3c(c2c1)CCc1cn[nH]c1-3 |  | 0.366 µM [rising, partial curve, poor fit] | 0.326 µM [rising, partial curve, poor fit] |
| O=C(c1ccccc1)C1CCc2occc2C1=O (stereo unspecified) | -25.4% | 4.61 µM [falling, full curve] |  |
| COc1ccc(CNc2ccc3c(c2)ncn3-c2ccccc2OC)cc1 | -7.13% |  |  |
| CC1(c2ccc(OCC(N)=O)cc2)NC(=O)NC1=O (stereo unspecified) |  | 6.51 µM [rising, single point] |  |
| O=C(N/N=C/C=C/c1ccccc1)c1cccs1 | 51.8% | 29.1 µM [rising, single point] | 29.1 µM [rising, single point] |
| Cc1ccc(S(=O)(=O)N2CCC(C(=O)OCC(=O)N3CC(C)CC(C)C3)CC2)cc1C (stereo unspecified) | -16.5% |  |  |

| SMILES | cell number change | AC50 [1] | AC50 [2] |
| --- | --- | --- | --- |
| CCN1C(=O)[C@@H]2[C@@H](c3ccc(-c4ccc(OC)cc4)cc3)N3CCC[C@@]3(C(=O)OC)[C@@H]2C1=O |  | 0.082 µM [rising, full curve, poor fit] |  |
| NC(=O)C[n+]1cccc(C(N)=O)c1 |  | 1.64 µM [falling, partial curve] |  |
| COc1cccc(CNC(=O)c2ccc(COc3ccccc3)cc2)c1 | 23.8% | 29.1 µM [rising, single point] |  |
| S=c1[nH]ccn1CCc1ccccc1 | 10.6% | 9.2 µM [rising, single point] |  |
| COc1ccc(NS(=O)(=O)c2cc3c(cc2C)N(C(C)=O)CCO3)cc1 | -8.36% | 3.26 µM [rising, partial curve, poor fit] |  |
| Cc1cc(C)c2c(CN3CCOCC3)cc(=O)oc2c1 | 33.3% |  | 1.16 µM [rising, partial curve] |
| CC(Sc1nnnn1C1CC1)C(=O)Nc1cccc(S(=O)(=O)N2CCOCC2)c1 (stereo unspecified) | -75% |  | 5.8 µM [falling, full curve] |
| COc1ccc(CN(C(=O)c2oc3ccccc3c2C)C2CCS(=O)(=O)C2)cc1 (stereo unspecified) | -31% | 0.58 µM [rising, full curve] | 18.4 µM [falling, single point] |
| CCOc1ccc(OCCOCCN2CCc3ccccc3C2)cc1 | 4.37% |  |  |
| Cc1ccc2cn[nH]c2c1[N+](=O)[O-] | 0.221% | 0.731 µM [falling, single point] |  |
| CC/C(=N/NC(=O)CCC(=O)Nc1ccccc1OC)c1ccccc1 | 8.53% |  | 0.461 µM [falling, single point] |
| COc1ccc(N(CC(=O)N2CCN(c3ccccc3)CC2)S(=O)(=O)c2ccc(C)cc2)cc1 | -3.24% | 2.91 µM [rising, single point] |  |
| CCOC(=O)c1[nH]c2ccccc2c1NC(=S)Nc1cccc(C)c1 | 13.1% | 14.6 µM [rising, partial curve, poor fit] |  |
| CCOC(=O)CCCN1CC(O)=C(c2nc(-c3ccc(Cl)cc3)cs2)C1=N | 5.35% | 6.51 µM [falling, single point] |  |
| O=C(C1CCCN1S(=O)(=O)c1ccc(Cl)c(Cl)c1)N1CCOCC1 (stereo unspecified) | -27.1% | 0.206 µM [falling, full curve, poor fit] |  |
| COc1ccc(CC(=O)NCc2n[nH]c(=S)n2-c2ccc(Br)cc2)cc1 |  | 0.58 µM [rising, single point] |  |
| Cc1ccc(N(C(C)C(=O)Nc2ccc3c(c2)OCO3)S(C)(=O)=O)cc1 (stereo unspecified) | -13.3% | 1.64 µM [rising, partial curve] |  |
| Brc1ccc(C2=Nc3ccccc3C(c3ccncc3)=NN2)cc1 | 16.8% | 0.461 µM [rising, full curve, poor fit] |  |
